PubChem BioAssay AID1259425, University of Nebraska Medical Center – 2018

Test: 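Compare each knockdown with KSR1 silencing using changes in marker transcripts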 (primary screen)
Cells: HCT116 human colon cancer cells
Reagents: siRNA pool against human genes, 50 nM siRNA
Detection: 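After 50 nM siRNA pool, branched-DNA assay measures six marker transcripts per well, minus blank, normalised to the geometric mean of two housekeeping transcripts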
Direction: BNIP3L mRNA: higher = more BNIP3L transcript after knockdown; NDRG1 mRNA: higher = more NDRG1 transcript after knockdown; BNIP3 mRNA: higher = more BNIP3 transcript after knockdown; ALDOC mRNA: higher = more ALDOC transcript after knockdown; ACSL5 mRNA: higher = more ACSL5 transcript after knockdown
This is an unselected part of about 14,000 deposited reagents. Not given: the time to read-out.

Target gene,"BNIP3L mRNA, set 1","NDRG1 mRNA, set 1","BNIP3 mRNA, set 1","ALDOC mRNA, set 1","ACSL5 mRNA, set 1"
INMT,0.165,0.719,0.307,0.0362,0.396
GSTM5,0.112,0.266,0.286,0.0411,0.136
EIF2B3,0.143,0.191,0.235,0.0204,0.232
DDN,0.0909,0.363,0.34,0.0228,0.278
TBCD,0.0968,0.164,0.206,0.0486,0.0933
ELOB,0.579,1.39,4.44,0.145,0.278
NSUN7,0.178,0.166,0.416,0.044,0.174
BAG5,0.0494,0.0819,0.148,0.00849,0.142
GAGE12I,0.189,0.568,0.274,0.0221,0.352
RAB3GAP2,0.0805,0.212,0.298,0.024,0.217
PODXL2,0.14,0.275,0.494,0.0231,0.193
SRF,0.0761,0.123,0.346,0.00369,0.244
CNOT11,0.0543,0.239,0.337,0.0203,0.12
SLC9A7,0.11,0.234,0.278,0.0443,0.253
GTSE1,0.107,0.153,0.237,0.00407,0.136
TXNDC11,0.0959,0.418,0.294,0.0126,0.301

Entries above whose gene name begins with G or g:
Target gene,"BNIP3L mRNA, set 1","NDRG1 mRNA, set 1","BNIP3 mRNA, set 1","ALDOC mRNA, set 1","ACSL5 mRNA, set 1"
GSTM5,0.112,0.266,0.286,0.0411,0.136
GAGE12I,0.189,0.568,0.274,0.0221,0.352
GTSE1,0.107,0.153,0.237,0.00407,0.136

The listing continues.
Target gene,"BNIP3L mRNA, set 1","NDRG1 mRNA, set 1","BNIP3 mRNA, set 1","ALDOC mRNA, set 1","ACSL5 mRNA, set 1"
SLC25A1,0.077,0.127,0.292,0.00649,0.0965
PTCD3,0.0953,0.289,0.23,0.0205,0.0989
OR3A3,0.145,0.294,0.363,0.0432,0.176
PLXNB2,0.286,0.793,0.489,0.0218,0.197
IL1RN,0.08,0.0973,0.205,0.0169,0.144
BCO2,0.307,0.335,0.399,0.106,0.546
ALDH7A1,0.0844,0.141,0.423,0.0238,0.157
ODF2L,0.106,0.102,0.256,0.0291,0.161
DOCK3,0.0684,0.202,0.285,0.0148,0.0768
RPL15,1.2,1.71,0.507,0.0467,0.395
UBOX5,0.0991,0.167,0.383,0.0233,0.0827
TOR2A,0.169,0.2,0.337,0.0538,0.0748
AUP1,0.0916,0.122,0.322,0.0448,0.123
TBC1D13,0.0903,0.223,0.268,0.0153,0.282
ANGPTL6,0.338,0.386,0.438,0.17,0.573
APOBEC3A,0.244,0.375,0.406,0.0505,0.23
FBXW2,0.0805,0.11,0.26,0.0342,0.0652
SLC9A5,0.0673,0.277,0.437,0.0214,0.133
